The other results are listed elsewhere or left out.
Each target was assayed with COc1ccc(Cn2ccc3cc(C)c(C(=O)NO)cc32)cc1 (assay: dose-dependent thermal stabilisation call (2D-TPP, DLPTP, 10% FDR) (binary (1 = stabilised)); higher = stabilised by the compound). Details: system: HL-60 intact cells; concentration range 0.04-10 µM.
Protocol: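 2D thermal proteome profiling in intact HL-60 cells treated with BRD-3811 (0, 0.04, 0.29, 2, 10 uM) for 90 min at 37 C, then heated 3 min at one of 12 temperatures (42-63.9 C). Soluble protein was quantified by TMT10 MS. The value is the DLPTP call of the paper: dose-dependent thermal stabilisation over all temperatures at 10% FDR (F-test of a dose-response against a flat model); one experiment, one call per tested protein.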

Amino acid sequences for entries named in this document (tags omitted). A change or cut given only in a name is not applied to a line headed by its entry.
UniProt Q9HC07: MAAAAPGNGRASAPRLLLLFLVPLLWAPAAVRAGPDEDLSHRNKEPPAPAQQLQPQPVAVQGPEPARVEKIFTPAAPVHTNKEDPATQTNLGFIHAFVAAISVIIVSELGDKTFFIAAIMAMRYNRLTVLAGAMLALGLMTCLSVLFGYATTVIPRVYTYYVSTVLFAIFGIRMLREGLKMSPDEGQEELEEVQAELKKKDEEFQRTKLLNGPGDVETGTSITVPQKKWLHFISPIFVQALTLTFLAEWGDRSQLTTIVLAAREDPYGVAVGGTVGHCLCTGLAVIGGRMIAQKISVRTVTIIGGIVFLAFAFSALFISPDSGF
UniProt Q8IU68: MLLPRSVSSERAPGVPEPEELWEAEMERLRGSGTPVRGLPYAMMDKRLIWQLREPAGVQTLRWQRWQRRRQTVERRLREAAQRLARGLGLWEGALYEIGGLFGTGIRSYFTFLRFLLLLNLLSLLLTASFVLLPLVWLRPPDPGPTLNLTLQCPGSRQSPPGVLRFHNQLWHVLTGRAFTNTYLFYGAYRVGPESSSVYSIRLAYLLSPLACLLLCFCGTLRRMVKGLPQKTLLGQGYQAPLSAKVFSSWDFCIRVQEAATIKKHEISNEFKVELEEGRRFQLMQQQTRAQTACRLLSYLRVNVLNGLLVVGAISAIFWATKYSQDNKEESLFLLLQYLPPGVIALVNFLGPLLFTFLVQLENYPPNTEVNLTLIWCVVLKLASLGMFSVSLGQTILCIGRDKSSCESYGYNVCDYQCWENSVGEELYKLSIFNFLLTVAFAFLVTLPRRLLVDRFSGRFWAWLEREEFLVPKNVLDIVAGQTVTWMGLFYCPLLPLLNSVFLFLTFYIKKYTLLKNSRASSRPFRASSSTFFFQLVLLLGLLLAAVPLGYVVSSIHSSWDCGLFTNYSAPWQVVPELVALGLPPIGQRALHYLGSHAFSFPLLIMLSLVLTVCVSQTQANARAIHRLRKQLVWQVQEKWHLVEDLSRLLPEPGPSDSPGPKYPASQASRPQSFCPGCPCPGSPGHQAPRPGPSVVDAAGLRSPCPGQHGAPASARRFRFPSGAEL
UniProt Q13445: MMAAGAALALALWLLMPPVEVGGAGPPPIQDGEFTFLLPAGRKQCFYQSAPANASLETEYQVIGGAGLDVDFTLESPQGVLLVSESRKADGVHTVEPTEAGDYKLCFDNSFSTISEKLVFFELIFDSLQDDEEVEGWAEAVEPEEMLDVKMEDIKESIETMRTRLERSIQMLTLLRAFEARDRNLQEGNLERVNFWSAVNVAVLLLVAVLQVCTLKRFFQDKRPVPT
UniProt Q9Y519: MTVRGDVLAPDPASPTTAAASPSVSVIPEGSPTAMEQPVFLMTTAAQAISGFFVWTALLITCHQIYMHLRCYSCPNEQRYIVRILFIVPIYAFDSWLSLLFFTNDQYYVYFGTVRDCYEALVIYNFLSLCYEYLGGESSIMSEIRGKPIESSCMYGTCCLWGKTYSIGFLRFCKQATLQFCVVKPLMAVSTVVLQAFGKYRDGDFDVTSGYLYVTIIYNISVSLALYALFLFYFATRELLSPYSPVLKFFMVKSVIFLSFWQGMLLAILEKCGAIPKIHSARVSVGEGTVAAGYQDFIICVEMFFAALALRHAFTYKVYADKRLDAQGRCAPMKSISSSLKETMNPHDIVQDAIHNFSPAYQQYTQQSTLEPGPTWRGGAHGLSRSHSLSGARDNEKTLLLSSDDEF
UniProt Q04727: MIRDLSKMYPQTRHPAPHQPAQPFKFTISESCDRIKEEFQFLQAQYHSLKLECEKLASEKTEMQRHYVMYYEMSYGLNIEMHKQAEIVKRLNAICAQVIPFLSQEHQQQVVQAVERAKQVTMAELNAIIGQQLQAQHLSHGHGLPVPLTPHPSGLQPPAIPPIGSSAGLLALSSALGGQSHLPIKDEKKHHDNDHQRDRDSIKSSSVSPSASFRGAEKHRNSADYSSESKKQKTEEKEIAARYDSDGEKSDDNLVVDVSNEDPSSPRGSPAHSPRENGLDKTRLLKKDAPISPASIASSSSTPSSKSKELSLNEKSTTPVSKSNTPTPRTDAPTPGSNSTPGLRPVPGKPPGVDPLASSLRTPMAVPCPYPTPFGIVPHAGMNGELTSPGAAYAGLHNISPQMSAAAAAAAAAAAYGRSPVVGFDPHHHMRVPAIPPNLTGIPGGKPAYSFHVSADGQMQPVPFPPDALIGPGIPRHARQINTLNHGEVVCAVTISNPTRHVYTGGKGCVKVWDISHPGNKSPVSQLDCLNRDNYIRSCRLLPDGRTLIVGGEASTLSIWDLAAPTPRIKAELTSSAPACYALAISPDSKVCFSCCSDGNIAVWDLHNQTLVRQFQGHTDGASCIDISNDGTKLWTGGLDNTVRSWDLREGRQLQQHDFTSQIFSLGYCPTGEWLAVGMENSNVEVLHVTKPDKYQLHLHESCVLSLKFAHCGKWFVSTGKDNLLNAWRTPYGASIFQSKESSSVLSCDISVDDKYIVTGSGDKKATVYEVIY
UniProt Q9BSV6: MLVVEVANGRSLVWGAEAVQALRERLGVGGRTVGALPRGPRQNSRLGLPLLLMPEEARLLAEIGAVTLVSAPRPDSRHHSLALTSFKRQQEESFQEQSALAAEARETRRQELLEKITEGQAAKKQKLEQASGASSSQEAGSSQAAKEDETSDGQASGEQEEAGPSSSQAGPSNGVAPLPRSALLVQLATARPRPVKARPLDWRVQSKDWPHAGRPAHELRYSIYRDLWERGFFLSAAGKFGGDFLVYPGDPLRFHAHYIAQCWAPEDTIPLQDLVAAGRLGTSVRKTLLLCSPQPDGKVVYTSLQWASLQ
UniProt Q15643: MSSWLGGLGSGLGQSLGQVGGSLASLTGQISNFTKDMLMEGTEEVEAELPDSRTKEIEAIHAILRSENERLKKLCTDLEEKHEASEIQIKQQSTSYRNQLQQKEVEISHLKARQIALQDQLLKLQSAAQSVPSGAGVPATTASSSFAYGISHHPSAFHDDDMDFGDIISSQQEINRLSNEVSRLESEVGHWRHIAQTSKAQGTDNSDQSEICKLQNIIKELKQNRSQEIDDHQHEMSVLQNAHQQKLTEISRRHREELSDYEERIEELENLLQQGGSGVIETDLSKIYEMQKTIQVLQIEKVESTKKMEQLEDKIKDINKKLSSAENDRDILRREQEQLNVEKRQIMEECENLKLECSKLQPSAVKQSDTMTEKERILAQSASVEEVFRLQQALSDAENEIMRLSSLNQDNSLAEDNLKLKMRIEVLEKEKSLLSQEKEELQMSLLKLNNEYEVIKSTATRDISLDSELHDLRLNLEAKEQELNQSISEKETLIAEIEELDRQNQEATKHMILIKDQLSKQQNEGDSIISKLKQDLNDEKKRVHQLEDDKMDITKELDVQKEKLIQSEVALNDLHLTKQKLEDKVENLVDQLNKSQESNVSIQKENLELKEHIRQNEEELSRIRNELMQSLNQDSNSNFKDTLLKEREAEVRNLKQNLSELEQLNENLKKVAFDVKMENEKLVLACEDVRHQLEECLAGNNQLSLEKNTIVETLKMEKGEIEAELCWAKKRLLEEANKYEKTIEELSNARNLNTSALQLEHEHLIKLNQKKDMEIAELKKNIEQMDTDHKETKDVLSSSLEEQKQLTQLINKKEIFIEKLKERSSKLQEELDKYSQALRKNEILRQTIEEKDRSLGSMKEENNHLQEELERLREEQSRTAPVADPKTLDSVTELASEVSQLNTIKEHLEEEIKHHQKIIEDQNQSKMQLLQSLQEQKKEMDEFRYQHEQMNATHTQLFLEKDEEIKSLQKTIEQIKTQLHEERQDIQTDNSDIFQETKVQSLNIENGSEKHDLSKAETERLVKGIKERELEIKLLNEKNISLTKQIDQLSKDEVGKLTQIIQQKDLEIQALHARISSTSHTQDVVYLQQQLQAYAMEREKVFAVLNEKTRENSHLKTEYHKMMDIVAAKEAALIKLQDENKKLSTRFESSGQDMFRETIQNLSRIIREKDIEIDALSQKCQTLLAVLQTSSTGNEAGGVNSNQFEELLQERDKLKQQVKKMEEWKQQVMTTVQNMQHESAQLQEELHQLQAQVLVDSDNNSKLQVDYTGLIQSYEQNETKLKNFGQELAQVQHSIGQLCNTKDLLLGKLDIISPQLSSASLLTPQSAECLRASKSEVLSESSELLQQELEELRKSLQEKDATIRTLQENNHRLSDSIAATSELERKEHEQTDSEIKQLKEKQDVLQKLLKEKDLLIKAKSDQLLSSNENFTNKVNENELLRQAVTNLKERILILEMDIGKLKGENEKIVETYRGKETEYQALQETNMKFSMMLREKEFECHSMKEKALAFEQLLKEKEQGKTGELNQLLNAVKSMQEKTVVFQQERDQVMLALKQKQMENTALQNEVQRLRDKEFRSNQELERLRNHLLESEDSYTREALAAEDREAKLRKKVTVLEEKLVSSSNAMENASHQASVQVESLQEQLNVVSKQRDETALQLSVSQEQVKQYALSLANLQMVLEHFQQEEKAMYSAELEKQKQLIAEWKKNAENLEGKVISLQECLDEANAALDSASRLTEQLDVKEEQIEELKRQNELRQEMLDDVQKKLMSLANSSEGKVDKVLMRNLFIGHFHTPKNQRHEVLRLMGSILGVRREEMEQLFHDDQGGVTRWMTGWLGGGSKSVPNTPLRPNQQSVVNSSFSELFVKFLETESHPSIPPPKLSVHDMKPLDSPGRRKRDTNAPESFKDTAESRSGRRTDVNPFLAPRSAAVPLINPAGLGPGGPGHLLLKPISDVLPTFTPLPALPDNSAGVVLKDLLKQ
UniProt Q9NSU2: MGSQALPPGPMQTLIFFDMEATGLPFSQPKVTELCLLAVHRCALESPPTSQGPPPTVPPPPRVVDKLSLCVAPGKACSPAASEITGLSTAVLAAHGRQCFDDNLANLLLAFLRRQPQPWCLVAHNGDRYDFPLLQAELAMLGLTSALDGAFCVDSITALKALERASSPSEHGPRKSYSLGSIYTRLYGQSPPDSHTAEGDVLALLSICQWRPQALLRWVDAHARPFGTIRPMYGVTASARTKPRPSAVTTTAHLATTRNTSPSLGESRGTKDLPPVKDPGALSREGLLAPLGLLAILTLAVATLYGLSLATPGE
UniProt P57088: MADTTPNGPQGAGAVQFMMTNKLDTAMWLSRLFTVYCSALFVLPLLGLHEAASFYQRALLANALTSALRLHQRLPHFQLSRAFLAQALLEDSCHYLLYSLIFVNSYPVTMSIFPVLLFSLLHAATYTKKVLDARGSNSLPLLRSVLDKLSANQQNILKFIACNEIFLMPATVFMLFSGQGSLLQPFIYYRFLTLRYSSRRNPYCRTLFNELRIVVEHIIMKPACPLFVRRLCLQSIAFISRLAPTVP

Target | dose-dependent thermal stabilisation call
TMEM165 (UniProt Q9HC07) | inactive: 0
TMC8 (UniProt Q8IU68) | inactive: 0
TMED1 (UniProt Q13445) | inactive: 0
TMEM184B (UniProt Q9Y519) | inactive: 0
TLE4 (UniProt Q04727) | inactive: 0
TSEN34 (UniProt Q9BSV6) | inactive: 0
TRIP11 (UniProt Q15643) | inactive: 0
TREX1 (UniProt Q9NSU2) | inactive: 0
TMEM33 (UniProt P57088) | inactive: 0

From the supplement of paper PMC7666118
